# No constants are given. Whether binding was seen depends on the method and setting. Tags and fused reporters may be left off the sequences shown.
# T1: Recombinant Human IL13 Rα2/Fc Chimera (R&D) (human) (UniProt Q14627)
# T1 sequence (looked up): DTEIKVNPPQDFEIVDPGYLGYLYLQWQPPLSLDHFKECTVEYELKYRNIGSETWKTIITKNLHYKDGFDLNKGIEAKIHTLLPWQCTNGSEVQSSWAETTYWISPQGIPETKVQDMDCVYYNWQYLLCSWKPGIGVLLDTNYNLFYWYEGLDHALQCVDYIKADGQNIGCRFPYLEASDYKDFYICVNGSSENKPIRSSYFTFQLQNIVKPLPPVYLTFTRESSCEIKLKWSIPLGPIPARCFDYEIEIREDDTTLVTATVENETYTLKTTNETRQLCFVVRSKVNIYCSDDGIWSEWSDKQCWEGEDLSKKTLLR
# Target: T1, Recombinant Human IL13 Rα2/Fc Chimera (R&D) (human)
# Assay: SPR (BIACORE2000), chimera captured on Ni-NTA chip
binder,measurement,value
"F997-13-1 antibody (antibody, IgG1, V domains shown) VH: EVKLQQSGGGLVQPGRSMKLSCAASGFTFSNYGMAWVRQAPKKGLEWVAYISYDGGSTYYRDSVKGRFTISRDNAKSTLYLQMDSLRSEDTATYHCTTPHYGYKYWYFDFWGQGTTVTVSS VL: DIQMTQSPASLSASLGETVTIECRASEDIYNGLAWYQQKPGKSPQLLIYHANSSHTGVPSRFSGSGSGTQYSLKIDSLQSEDVANYFCQQYYDYPTFGAGTKLELKR",binding,no binding (tested: RU < 50; antibody 50 µg/ml)

# From patent US20050154192A1 (published 2005)
